Results reported in patent US20090202429A1.
Results are given in words; binding and its absence hold for the method and conditions named. Some entries that bind do so weakly or less than the wild type.

Amino acid sequences for entries named in this document (tags omitted). A change or cut given only in a name is not applied to a line headed by its entry. Residues count along the entry.
UniProt O35930, residues 17-734: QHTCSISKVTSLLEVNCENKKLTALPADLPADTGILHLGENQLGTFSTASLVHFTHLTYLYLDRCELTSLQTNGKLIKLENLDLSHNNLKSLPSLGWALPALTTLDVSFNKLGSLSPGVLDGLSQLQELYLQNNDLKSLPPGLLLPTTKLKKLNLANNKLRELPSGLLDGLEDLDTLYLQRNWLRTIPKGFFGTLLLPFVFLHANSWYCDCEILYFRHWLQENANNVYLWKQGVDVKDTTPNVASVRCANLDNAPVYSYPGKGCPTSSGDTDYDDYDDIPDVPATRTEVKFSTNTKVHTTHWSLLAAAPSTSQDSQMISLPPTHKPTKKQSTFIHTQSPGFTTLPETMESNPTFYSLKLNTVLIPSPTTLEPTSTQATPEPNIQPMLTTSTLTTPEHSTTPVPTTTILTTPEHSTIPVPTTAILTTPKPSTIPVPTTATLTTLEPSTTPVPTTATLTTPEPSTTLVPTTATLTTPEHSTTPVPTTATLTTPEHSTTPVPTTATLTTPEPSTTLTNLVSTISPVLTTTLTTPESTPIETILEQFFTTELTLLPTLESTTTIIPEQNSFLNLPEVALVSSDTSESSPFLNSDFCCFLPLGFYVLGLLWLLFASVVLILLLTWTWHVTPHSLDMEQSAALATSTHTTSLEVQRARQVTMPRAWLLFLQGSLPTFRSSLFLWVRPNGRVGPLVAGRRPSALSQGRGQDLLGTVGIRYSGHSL
UniProt Q8CIZ8: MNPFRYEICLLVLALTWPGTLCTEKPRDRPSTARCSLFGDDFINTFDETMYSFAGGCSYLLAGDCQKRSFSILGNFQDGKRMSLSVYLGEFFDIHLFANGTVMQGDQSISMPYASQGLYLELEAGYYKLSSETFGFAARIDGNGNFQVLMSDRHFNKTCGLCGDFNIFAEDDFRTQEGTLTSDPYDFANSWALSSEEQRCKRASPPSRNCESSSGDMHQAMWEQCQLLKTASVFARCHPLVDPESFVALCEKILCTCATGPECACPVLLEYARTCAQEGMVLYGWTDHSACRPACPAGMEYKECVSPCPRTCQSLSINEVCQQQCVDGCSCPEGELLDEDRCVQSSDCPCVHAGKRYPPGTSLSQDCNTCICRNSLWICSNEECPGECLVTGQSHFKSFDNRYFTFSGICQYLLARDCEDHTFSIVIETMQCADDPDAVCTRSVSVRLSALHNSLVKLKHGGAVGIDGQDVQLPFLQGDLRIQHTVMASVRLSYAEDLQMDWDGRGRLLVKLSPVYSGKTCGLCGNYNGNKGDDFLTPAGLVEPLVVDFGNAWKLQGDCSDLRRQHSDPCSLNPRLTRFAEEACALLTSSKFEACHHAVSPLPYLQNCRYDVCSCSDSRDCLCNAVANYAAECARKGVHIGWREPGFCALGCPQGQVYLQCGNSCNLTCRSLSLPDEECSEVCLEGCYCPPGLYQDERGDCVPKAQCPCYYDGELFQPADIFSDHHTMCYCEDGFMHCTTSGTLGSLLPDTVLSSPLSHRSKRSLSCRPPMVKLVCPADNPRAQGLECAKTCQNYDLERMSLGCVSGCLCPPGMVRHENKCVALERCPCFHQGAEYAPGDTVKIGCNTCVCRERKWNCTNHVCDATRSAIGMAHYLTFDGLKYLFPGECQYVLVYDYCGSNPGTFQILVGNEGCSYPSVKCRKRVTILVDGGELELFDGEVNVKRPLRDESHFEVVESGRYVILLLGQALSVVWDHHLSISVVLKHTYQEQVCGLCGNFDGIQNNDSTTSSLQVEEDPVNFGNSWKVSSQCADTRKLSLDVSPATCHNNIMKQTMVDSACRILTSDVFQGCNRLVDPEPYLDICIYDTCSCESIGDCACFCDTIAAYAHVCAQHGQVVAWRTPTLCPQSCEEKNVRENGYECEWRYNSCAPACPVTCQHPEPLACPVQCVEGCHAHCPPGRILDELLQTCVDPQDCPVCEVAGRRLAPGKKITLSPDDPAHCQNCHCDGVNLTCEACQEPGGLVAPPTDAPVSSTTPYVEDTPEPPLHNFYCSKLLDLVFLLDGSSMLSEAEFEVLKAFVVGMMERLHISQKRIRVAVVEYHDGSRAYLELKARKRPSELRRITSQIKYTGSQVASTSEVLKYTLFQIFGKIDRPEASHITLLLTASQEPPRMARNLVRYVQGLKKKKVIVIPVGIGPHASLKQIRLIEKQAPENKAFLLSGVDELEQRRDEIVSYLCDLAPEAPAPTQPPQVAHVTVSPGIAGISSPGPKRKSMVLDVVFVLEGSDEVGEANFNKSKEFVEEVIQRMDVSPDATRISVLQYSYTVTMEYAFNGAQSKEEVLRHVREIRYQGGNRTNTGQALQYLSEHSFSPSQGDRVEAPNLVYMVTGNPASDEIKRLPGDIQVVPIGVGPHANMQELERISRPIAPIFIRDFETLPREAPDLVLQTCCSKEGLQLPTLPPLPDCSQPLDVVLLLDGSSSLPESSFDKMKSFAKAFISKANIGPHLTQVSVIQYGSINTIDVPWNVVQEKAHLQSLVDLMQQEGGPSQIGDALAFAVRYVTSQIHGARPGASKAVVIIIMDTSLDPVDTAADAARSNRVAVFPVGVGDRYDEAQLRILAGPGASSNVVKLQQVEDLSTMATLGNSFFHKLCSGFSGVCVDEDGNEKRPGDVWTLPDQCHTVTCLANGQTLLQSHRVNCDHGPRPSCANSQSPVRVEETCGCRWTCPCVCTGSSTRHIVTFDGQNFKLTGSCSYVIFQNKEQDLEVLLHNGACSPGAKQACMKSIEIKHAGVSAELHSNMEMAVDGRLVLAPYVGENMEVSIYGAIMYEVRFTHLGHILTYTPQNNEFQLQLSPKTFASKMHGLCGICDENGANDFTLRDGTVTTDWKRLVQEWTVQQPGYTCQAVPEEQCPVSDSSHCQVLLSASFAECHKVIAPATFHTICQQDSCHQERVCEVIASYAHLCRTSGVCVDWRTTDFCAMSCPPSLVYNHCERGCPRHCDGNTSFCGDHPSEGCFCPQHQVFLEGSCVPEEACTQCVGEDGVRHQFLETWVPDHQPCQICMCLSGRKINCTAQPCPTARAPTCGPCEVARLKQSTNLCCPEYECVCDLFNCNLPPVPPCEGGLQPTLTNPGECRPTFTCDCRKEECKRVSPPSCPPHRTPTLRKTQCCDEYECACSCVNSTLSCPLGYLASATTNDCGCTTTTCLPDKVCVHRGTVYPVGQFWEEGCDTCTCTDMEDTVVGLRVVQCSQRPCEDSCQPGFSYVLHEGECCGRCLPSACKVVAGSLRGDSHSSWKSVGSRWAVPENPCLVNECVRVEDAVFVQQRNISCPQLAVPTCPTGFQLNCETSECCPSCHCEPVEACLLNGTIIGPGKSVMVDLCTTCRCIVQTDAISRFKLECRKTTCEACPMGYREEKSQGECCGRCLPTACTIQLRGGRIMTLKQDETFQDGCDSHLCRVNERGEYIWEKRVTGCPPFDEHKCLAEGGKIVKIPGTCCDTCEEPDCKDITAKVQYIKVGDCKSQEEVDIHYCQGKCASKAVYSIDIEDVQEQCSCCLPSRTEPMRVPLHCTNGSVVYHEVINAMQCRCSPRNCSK

Legend:
[1] = molecular target: murine platelet glycoprotein Ib alpha (GPIb alpha), on mouse platelets (mouse) (UniProt O35930); assay: mouse whole blood perfused 4 min over surface-immobilized plasma VWF, 1600 s-1
[2] = molecular target: murine platelet glycoprotein Ib alpha (GPIb alpha), on mouse platelets (mouse) (UniProt O35930); assay: panel B: murine platelets on surface-immobilized plasma VWF in flow, 1600 s-1
[3] = molecular target: murine platelet glycoprotein Ib alpha (GPIb alpha), on mouse platelets (mouse) (UniProt O35930); assay: platelet adhesion to surface-immobilized plasma VWF in flow, 1600 s^-1

Measured: binding

murine plasma VWF, wild type (from UniProt Q8CIZ8 764-2813) (ligand)
binds: all assays above
